Measurements taken from article PMC12216399.
Like-named read-outs stand apart in the source and are kept apart here. Results are given in words; binding and its absence hold for the method and conditions named. Binding seen in cells or lysates may run through a third protein. Some entries that bind do so weakly or less than the wild type.

Protein sequences, listed by entry. Tags and fused reporters are not part of them.
UniProt P46940: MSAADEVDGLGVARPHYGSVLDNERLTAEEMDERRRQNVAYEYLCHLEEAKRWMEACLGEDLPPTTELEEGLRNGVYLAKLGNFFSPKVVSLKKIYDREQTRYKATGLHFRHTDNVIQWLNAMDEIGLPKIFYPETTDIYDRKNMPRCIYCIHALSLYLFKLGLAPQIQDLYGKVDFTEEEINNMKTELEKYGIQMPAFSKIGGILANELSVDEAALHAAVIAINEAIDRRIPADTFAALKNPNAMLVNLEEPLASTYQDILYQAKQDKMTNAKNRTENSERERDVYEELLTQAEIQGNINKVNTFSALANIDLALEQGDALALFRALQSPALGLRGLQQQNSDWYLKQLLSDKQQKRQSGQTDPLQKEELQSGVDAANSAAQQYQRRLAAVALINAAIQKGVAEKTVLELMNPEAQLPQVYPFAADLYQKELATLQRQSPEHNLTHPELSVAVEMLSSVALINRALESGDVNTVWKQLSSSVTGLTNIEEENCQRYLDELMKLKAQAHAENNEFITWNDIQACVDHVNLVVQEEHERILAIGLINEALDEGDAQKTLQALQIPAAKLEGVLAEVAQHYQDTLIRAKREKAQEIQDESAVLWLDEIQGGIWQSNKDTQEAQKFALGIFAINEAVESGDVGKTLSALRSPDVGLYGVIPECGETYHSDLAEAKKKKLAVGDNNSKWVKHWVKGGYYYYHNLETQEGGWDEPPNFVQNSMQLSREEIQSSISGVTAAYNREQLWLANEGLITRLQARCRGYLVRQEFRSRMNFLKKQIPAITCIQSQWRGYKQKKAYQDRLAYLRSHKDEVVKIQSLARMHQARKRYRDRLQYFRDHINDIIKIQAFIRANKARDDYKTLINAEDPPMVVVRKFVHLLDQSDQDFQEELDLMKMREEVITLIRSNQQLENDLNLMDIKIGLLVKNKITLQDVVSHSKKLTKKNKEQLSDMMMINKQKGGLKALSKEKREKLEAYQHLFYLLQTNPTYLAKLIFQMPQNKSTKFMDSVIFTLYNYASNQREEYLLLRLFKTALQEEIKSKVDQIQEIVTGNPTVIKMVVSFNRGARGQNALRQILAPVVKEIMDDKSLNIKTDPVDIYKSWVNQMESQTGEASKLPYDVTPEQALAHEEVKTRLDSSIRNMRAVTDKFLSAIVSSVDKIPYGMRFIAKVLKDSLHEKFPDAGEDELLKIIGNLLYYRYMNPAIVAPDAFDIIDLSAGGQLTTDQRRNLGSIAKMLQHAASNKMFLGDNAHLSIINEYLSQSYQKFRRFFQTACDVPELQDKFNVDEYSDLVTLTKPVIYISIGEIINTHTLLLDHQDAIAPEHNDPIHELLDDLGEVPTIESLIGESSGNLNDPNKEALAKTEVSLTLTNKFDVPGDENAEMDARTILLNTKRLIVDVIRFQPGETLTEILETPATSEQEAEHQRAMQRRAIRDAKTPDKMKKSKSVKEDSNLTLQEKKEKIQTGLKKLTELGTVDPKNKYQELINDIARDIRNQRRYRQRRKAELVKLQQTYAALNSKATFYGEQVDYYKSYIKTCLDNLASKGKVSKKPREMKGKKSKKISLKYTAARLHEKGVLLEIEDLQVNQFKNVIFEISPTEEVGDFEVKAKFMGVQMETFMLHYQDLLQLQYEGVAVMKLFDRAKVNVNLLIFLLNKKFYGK

Tests used:
[1] = molecular target: T1, ATG9A (Autophagy Related 9 A) (human (endogenous in human ovarian cancer cells)) (UniProt Q7Z3C6); experiment: co-IP; ATG9A antibody (Cell Signaling Technology, 13509S) or rabbit IgG crosslinked with DSS to resin (Pierce Crosslink Immunoprecipitation Kit); 750 µg protein extract, 4 °C overnight; Western blot of eluate; cancer cells alone or co-cultured with macrophages
T1 sequence: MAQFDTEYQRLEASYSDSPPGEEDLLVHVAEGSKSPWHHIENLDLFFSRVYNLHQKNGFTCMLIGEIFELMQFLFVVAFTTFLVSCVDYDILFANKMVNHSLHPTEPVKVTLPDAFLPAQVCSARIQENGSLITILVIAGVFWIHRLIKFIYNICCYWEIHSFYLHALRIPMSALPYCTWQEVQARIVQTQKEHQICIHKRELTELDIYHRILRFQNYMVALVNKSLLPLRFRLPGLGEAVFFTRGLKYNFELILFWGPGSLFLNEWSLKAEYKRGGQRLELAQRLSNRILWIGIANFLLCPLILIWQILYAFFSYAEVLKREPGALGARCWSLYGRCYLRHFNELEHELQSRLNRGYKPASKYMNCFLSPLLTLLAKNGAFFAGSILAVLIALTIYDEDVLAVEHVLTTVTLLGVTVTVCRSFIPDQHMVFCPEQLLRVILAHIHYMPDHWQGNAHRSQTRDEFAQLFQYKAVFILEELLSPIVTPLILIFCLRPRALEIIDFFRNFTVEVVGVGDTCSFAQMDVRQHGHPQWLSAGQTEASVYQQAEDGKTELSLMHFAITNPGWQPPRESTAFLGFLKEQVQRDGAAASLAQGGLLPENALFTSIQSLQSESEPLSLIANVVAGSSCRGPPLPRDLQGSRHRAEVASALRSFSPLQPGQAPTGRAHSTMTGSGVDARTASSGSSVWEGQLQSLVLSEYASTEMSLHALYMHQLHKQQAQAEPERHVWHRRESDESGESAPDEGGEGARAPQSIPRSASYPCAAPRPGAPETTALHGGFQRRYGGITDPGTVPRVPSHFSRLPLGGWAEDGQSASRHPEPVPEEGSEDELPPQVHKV

[2] = molecular target: T1, ATG9A (Autophagy Related 9 A) (human (endogenous in human ovarian cancer cells)); experiment: as above; remark: listed apart in the source

IQGAP1 (from UniProt P46940 1-1657)
binding [1]: binds

B1: caveolae associated protein 2 (CAVIN2) (protein, UniProt O95810 1-425)
chain: MGEDAAQAEKFQHPGSDMRQEKPSSPSPMPSSTPSPSLNLGNTEEAIRDNSQVNAVTVLTLLDKLVNMLDAVQENQHKMEQRQISLEGSVKGIQNDLTKLSKYQASTSNTVSKLLEKSRKVSAHTRAVKERMDRQCAQVKRLENNHAQLLRRNHFKVLIFQEENEIPASVFVKQPVSGAVEGKEELPDENKSLEETLHTVDLSSDDDLPHDEEALEDSAEEKVEESRAEKIKRSSLKKVDSLKKAFSRQNIEKKMNKLGTKIVSVERREKIKKSLTSNHQKISSGKSSPFKVSPLTFGRKKVREGESHAENETKSEDLPSSEQMPNDQEEESFAEGHSEASLASALVEGEIAEEAAEKATSRGSNSGMDSNIDLTIVEDEEEESVALEQAQKVRYEGSYALTSEEAERSDGDPVQPAVLQVHQTS
binding [2]: binds
